Measurements published in the supplement of paper PMC5949888.
Most values lie at the floor of the assay. Slopes are relative: functional sequences can read slightly below zero.

system: Saccharomyces cerevisiae PS128 hsf1 delta, HSF1(1-493) fusion; test: growth estimate (transactivation domain function in HSF1 fusion, heat-shock survival) (a.u. (slope of normalised read count over time)); higher = stronger growth at 37°C, i.e. more transactivation activity; conditions: library: random library

| Substance | growth estimate |
| --- | --- |
| LCNVEYAEAAYLGNFLASNW | < -0.25 |
| LCPCCTSCGSAVRTQRKPRS | < -0.25 |
| LCQAPCNARSGKTRFCSHAL | < -0.25 |
| LCQPAPTRGRDPADTCDATL | < -0.25 |
| LCREC | < -0.25 |
| LCRQLVLLGLMRKHGEYDDE | < -0.25 |
| LCRRLRTYYHGREAAHGSL | < -0.25 |
| LCRSVCQLKSGPLEYGPFCY | < -0.25 |
| LCRVPVR | < -0.25 |
| LCSASGASIPI | < -0.25 |
| LCSMRCWNTEV | < -0.25 |
| LCTAKCPTTAINSDFPGFNS | < -0.25 |
| LCTAWVKRSGSLYGVG | < -0.25 |
| LCTQDTRYWILSLMRWSDRF | < -0.25 |
| LCV | < -0.25 |
| LCVKNHPECAFGDATRLALI | < -0.25 |
| LCVRKRGI | < -0.25 |
| LCYRRASR | < -0.25 |
| LDACQDSVN | < -0.25 |
| LDDRSTFVRRSDVTLFIIAT | < -0.25 |
| LDEWDWRSKTSAFLSKGC | < -0.25 |
| LDFG | < -0.25 |
| LDGHETSVTSVVWSADPGII | < -0.25 |
| LDGMTNTARILSF | < -0.25 |

| Substance | growth estimate |
| --- | --- |
| LDGRLSHFIS | < -0.25 |
| LDGSRHRRCCPPNRPTCLSK | < -0.25 |
| LDHGTQFFMGYLLTRSTVRT | < -0.25 |
| LDIHRRDNPSGSVVRDPKTT | < -0.25 |
| LDKPVGV | < -0.25 |
| LDKRDMSVDAVSVNVDIDLR | < -0.25 |
| LDKWAFGVTGLTPANPSLGT | < -0.25 |
| LDLAKAGTLLTGPNRLAASR | < -0.25 |
| LDLGNVDSGS | < -0.25 |
| LDLGYDTSHTTRGRKVGLWS | < -0.25 |
| LDMLLPCSVSNFEKVVLRSN | < -0.25 |
| LDPASLM | < -0.25 |
| LDPGR | < -0.25 |
| LDPIGQYL | < -0.25 |
| LDPIIFSGGSTA | < -0.25 |
| LDPIPFHEGFLRQRRELVKF | < -0.25 |
| LDPSARCRWIFCGGLG | < -0.25 |
| LDPVFTESRAGGERRAHKVC | < -0.25 |
| LDQPVISWIFELPGRRGQRV | < -0.25 |
| LDQRSAQVRADLCWRTVPSD | < -0.25 |
| LDRAHRILHVVAPHSAKKGV | < -0.25 |
| LDRDGRDTKAYRTCCSTGSI | < -0.25 |
| LDRDRDGRKGPMCYKPTKPS | < -0.25 |
| LDRSRRCLLAPFLAIGGKLC | < -0.25 |

In another format: results already given
Substance,growth estimate
LDGRLSHFIS,< -0.25
LDGSRHRRCCPPNRPTCLSK,< -0.25
LDIHRRDNPSGSVVRDPKTT,< -0.25
LDKPVGV,< -0.25
LDKRDMSVDAVSVNVDIDLR,< -0.25
LDKWAFGVTGLTPANPSLGT,< -0.25
LDLAKAGTLLTGPNRLAASR,< -0.25
LDLGYDTSHTTRGRKVGLWS,< -0.25
LDMLLPCSVSNFEKVVLRSN,< -0.25
LDPASLM,< -0.25
LDPGR,< -0.25
LDPIIFSGGSTA,< -0.25
LDPIPFHEGFLRQRRELVKF,< -0.25
LDPSARCRWIFCGGLG,< -0.25
LDPVFTESRAGGERRAHKVC,< -0.25
LDQRSAQVRADLCWRTVPSD,< -0.25
LDRAHRILHVVAPHSAKKGV,< -0.25
LDRDGRDTKAYRTCCSTGSI,< -0.25
LDRDRDGRKGPMCYKPTKPS,< -0.25
LDRSRRCLLAPFLAIGGKLC,< -0.25

More entries:

| Substance | growth estimate |
| --- | --- |
| LDSSDGTLRILRGWLPGHLN | < -0.25 |
| LDTKVAL | < -0.25 |
| LDVGLIDS | < -0.25 |
| LDVLVRGC | < -0.25 |
| LDVVLTSNHTGARVFS | < -0.25 |
| LDVYVTDQSPFAANSADNLV | < -0.25 |
| LDYSPVHRKVGGTLAIGSSR | < -0.25 |
| LEA | < -0.25 |
| LEARAAVATKIW | < -0.25 |
| LEAREKN | < -0.25 |
| LEC | < -0.25 |
| LECLRRGGMKLPLRRPCS | < -0.25 |
| LECRVMTRRTRVRHRAFAKE | < -0.25 |
| LEFAAVARDQQRTSSIDAKQ | < -0.25 |
| LEFAKA | < -0.25 |
| LEFSKAKAARGLTSDCAT | < -0.25 |
| LEFSWHLLANVRRDVSYMDA | < -0.25 |
| LEGCVSPGASLRARNWFTSP | < -0.25 |
| LEGFSQCECRASSTFSA | < -0.25 |
| LEGLVSCTGTHGHPLSPHYP | < -0.25 |
| LEGQYDDVRFPVTPHILENG | < -0.25 |
| LEGRRRIQVFTEGSCTWGDK | < -0.25 |
| LEHICQPTAGRKVNPLYEGT | < -0.25 |

Reprinted at random: two records from the list

| Substance | growth estimate |
| --- | --- |
| LDLAKAGTLLTGPNRLAASR | < -0.25 |
| LEA | < -0.25 |
